# Test results as given in the supplement of paper PMC11732987, “Enantioselective OTUD7B fragment discovery through chemoproteomics screening and high-throughput optimisation” (Communications Chemistry, 2025).
# Amino acid sequences for entries named in this document (tags omitted). A change or cut given only in a name is not applied to a line headed by its entry.
# UniProt P31939: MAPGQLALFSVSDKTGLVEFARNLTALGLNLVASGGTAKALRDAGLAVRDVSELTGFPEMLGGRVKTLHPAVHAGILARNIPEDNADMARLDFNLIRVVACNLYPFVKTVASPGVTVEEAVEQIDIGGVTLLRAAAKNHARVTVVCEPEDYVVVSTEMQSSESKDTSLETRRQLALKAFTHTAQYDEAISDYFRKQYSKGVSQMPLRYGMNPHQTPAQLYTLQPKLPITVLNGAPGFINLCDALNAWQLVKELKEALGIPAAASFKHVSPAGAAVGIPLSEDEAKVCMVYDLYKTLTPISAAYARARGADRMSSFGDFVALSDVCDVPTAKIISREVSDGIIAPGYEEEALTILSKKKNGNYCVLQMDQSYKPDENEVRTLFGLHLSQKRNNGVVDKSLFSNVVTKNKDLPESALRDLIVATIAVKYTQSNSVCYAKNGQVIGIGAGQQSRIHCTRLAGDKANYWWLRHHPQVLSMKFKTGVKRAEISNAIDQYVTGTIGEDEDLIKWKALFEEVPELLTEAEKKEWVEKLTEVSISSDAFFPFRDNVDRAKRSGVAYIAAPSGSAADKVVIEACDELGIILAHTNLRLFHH
# UniProt Q9UIG0: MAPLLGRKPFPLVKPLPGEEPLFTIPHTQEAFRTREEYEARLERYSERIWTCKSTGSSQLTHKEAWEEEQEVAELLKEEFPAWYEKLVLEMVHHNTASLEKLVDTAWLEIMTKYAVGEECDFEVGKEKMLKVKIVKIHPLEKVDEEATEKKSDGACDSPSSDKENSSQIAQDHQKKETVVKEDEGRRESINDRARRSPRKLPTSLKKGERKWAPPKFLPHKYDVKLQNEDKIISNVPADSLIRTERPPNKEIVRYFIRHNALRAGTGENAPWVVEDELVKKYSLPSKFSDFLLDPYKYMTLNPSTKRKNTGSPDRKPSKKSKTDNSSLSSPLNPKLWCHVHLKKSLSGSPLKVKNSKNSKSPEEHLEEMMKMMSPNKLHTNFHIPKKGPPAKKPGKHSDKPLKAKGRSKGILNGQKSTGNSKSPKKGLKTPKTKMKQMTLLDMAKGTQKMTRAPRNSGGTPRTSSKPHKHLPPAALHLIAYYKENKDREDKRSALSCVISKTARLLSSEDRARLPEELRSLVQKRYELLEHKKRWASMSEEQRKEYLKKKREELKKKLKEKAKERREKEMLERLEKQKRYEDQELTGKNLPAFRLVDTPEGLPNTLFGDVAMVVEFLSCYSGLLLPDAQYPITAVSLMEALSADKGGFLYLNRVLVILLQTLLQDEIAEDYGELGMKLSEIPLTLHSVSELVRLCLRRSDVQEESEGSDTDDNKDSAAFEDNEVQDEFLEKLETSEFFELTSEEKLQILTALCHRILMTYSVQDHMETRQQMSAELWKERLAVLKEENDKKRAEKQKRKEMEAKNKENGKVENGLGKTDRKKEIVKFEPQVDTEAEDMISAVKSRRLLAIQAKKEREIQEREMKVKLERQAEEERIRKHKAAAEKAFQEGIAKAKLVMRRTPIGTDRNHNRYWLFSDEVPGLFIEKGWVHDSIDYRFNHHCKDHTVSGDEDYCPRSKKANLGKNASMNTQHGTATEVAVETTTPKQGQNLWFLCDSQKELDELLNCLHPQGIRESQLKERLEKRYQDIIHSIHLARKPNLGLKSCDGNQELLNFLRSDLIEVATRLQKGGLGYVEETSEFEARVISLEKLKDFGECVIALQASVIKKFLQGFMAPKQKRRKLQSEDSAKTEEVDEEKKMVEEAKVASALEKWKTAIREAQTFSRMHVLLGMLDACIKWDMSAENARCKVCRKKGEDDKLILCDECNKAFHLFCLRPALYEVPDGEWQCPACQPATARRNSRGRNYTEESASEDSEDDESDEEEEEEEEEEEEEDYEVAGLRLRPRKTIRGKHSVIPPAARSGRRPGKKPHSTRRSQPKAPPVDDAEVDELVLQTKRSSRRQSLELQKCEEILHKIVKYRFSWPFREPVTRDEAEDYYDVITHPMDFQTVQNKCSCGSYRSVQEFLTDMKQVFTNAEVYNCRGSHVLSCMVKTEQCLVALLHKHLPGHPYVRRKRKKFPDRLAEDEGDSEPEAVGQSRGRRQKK
# UniProt Q6W2J9: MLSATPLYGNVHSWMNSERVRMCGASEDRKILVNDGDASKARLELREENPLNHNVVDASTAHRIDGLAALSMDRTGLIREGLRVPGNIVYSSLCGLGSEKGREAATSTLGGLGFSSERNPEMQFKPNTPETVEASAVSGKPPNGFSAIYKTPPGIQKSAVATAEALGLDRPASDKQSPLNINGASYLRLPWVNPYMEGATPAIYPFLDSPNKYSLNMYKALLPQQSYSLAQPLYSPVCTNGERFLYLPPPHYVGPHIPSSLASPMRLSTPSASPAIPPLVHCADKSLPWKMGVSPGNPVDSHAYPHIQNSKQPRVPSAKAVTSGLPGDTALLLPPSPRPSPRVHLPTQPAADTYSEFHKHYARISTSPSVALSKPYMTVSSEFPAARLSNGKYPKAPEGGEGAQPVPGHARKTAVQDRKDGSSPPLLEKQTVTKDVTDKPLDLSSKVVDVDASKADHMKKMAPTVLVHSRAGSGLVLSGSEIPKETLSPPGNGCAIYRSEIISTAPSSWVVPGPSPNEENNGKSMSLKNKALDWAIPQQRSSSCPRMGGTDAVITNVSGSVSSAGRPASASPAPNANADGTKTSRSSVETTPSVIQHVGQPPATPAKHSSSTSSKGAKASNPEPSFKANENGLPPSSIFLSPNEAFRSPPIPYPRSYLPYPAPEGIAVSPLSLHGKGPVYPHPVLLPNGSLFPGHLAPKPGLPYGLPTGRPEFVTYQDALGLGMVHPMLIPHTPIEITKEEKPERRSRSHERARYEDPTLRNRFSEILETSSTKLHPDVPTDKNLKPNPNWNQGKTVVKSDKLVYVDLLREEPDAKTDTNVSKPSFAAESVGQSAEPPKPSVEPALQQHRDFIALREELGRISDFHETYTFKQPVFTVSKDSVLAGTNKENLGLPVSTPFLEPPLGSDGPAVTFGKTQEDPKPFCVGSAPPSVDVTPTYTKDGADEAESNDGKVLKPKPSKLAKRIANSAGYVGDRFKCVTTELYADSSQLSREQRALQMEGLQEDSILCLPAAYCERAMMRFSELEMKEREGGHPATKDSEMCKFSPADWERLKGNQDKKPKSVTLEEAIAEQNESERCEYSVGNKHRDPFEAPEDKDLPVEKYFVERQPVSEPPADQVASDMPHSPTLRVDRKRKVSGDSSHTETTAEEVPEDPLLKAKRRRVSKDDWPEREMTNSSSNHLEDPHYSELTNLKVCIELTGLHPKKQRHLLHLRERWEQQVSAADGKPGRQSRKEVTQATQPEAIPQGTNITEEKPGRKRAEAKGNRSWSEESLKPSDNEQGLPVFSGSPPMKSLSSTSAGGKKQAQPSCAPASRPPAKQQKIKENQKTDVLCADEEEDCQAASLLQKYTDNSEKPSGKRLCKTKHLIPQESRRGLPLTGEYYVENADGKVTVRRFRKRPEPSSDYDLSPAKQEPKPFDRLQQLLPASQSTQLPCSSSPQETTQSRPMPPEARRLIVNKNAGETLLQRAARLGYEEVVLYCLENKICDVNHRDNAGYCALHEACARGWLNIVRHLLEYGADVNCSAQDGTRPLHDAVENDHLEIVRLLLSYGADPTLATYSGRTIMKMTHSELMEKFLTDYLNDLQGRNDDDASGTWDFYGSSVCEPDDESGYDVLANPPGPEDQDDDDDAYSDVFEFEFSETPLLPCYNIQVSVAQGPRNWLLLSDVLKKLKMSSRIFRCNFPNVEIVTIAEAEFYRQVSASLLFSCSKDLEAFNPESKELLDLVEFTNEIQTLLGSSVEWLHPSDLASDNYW
# UniProt Q8TD16: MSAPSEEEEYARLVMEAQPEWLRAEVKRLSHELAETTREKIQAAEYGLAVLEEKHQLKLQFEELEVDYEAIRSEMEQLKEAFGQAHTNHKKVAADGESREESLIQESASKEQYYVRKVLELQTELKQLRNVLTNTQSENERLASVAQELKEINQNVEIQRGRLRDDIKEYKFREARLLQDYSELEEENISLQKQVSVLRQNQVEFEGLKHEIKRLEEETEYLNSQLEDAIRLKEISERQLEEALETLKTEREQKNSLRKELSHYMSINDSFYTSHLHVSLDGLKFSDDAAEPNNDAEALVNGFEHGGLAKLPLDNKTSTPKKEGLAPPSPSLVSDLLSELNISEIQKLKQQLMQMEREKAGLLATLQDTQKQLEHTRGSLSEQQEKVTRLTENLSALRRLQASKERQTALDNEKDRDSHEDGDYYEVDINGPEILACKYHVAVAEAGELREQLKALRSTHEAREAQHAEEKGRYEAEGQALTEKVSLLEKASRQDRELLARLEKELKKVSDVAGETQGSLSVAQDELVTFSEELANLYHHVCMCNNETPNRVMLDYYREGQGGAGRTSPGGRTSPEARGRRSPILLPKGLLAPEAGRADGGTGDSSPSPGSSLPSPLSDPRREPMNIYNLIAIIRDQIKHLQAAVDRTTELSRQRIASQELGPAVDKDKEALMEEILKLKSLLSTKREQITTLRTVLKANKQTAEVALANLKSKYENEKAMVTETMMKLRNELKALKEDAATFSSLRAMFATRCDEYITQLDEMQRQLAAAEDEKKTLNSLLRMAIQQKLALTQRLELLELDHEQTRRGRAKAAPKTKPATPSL
# UniProt Q14457, whole entry, looked up: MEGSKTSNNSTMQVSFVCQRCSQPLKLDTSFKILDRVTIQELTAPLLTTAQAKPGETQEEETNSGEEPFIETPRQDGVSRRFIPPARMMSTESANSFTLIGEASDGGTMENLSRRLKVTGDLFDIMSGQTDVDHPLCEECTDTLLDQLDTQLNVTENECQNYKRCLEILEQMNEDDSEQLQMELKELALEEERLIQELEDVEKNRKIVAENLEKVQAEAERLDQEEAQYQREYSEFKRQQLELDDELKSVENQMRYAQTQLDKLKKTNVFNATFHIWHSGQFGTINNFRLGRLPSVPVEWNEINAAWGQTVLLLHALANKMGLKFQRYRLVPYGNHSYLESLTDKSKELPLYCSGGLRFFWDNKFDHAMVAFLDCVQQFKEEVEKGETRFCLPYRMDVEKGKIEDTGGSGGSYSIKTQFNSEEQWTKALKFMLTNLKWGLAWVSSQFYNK
# UniProt Q12797: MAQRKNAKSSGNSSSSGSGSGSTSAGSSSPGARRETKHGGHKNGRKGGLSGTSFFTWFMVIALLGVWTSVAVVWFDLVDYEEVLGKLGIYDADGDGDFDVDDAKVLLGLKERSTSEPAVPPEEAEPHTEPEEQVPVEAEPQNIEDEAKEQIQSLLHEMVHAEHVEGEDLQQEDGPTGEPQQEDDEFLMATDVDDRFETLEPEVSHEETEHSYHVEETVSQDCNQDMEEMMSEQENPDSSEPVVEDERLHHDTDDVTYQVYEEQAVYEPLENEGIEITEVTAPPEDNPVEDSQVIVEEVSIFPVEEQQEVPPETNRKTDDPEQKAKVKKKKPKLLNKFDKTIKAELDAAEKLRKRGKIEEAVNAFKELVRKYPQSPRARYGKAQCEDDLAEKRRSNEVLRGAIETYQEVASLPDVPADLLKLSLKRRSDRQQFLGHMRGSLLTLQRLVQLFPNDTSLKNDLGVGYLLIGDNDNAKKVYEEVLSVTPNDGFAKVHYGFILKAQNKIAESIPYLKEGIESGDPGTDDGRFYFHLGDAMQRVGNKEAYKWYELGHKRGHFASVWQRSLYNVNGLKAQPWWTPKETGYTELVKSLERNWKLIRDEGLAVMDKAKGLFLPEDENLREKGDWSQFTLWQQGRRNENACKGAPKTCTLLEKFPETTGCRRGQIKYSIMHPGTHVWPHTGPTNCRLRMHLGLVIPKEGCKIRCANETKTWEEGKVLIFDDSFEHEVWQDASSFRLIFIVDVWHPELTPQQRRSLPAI
# UniProt O43521, whole entry, looked up: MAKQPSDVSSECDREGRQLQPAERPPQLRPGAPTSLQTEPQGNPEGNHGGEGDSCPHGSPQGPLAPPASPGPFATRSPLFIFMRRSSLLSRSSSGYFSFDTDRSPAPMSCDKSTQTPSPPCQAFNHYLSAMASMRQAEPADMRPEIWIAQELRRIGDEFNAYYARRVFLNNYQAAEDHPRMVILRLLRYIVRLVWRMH
# UniProt O75348: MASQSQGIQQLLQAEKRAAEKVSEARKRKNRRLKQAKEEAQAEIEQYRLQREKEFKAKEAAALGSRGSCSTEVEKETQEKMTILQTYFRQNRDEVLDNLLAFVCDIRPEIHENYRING
# UniProt Q9H2G9: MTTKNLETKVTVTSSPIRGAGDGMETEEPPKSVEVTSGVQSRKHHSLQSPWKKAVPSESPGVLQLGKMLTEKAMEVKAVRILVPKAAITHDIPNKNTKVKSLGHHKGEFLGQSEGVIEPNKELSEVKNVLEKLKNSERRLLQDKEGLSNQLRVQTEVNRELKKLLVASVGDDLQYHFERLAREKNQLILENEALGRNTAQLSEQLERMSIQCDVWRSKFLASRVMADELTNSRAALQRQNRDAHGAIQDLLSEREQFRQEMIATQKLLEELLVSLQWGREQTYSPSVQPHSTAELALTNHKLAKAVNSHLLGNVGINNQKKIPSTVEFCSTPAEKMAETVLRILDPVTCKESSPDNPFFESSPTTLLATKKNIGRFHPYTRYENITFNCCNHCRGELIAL
# Some of the results follow. The data scatter; read single values as rough.
# What was measured:
# [1] = compound: ClCC(=O)N[C@@H]1CCCc2ccccc12; assay: log2 mean competition ratio of IA-DTB cysteine labelling (DMSO/compound) (log2 ratio); higher = stronger cysteine engagement by compound; settings: treatment time: 4 h, cell line lysate: HEK293T
# Description: (§1)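 IA-DTB competitive cysteine chemoproteomics in HEK293T RIPA lysate. Lysates were treated with compound 29 or 30 at 50 or 200 µM for 4 h, then IA-DTB (500 µM, 1 h), trypsin-digested, NeutrAvidin-enriched and analysed by diaPASEF. Competition ratio = intensity DMSO / intensity compound (n=4 treated, n=64 DMSO); binding: mean log2 CR ≥ 1 and p ≤ 0.05 plus QC filters. Target is the cysteine site.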
# [2] = compound: ClCC(=O)N[C@H]1CCCc2ccccc12; assay: as above; settings: treatment time: 4 h, cell line lysate: HEK293T
# Description: as §1
Target,log2 mean competition ratio ([1]; 50 µM),log2 mean competition ratio ([1]; 200 µM),log2 mean competition ratio ([2]; 50 µM),log2 mean competition ratio ([2]; 200 µM)
ATIC C434 (UniProt P31939),0.0573,-0.128,-0.146,-0.322
BAZ1B C953 (UniProt Q9UIG0),0.202,0.277,0.0207,0.123
AVEN C169 (UniProt Q9NQS1),-0.00448,-0.0232,-0.158,-0.0679
BCOR C1311 (UniProt Q6W2J9),-0.218,0.0247,-0.302,-0.0792
BAZ1A C764 (UniProt Q9NRL2),-0.265,0.0536,0.116,0.223
ATAD2 C1261 (UniProt Q6PL18),-0.164,0.0326,0.142,0.131
BICD2 C754 (UniProt Q8TD16),-0.162,0.346,0.151,0.166
ATPAF1 C321 (UniProt Q5TC12),0.0123,-0.0797,-0.0722,-0.246
BECN1 C353 (UniProt Q14457),-0.00884,-0.298,-0.0657,-0.178
BCORL1 C972 (UniProt Q5H9F3),0.0197,-0.0493,-0.124,0.183
BDP1 C1299 (UniProt A6H8Y1),-0.379,-0.171,-0.0698,0.0603
AURKB C234 (UniProt Q96GD4),-0.19,-0.0964,0.101,0.0978
BCAM C522,0.00831,0.196,0.0544,0.207
BIRC6 C777,0.0441,0.00802,0.373,0.00706
ASPH C384 (UniProt Q12797),-0.276,0.16,-0.429,0.252
BCL2L11 C110 (UniProt O43521),-0.235,0.0564,-0.135,-0.0348
ATP6V1G1 C69 (UniProt O75348),-0.0351,-0.109,-0.0379,-0.147
ASNSD1 C378,0.22,-0.000899,0.0482,-0.0819
BLZF1 C329 (UniProt Q9H2G9),0.14,0.206,-0.0139,0.0588
BCOR C1488 (UniProt Q6W2J9),0.228,0.312,0.27,-0.205

# Random excerpt: 2 entries already listed
Target,log2 mean competition ratio ([1]; 50 µM),log2 mean competition ratio ([1]; 200 µM),log2 mean competition ratio ([2]; 50 µM),log2 mean competition ratio ([2]; 200 µM)
ASNSD1 C378,0.22,-0.000899,0.0482,-0.0819
ATIC C434 (UniProt P31939),0.0573,-0.128,-0.146,-0.322
